Reference: PubChem BioAssay AID248 (DTP/NCI, 2004)
The list shows only some results of the screen, not a fair sample: it is rich in T/C values a quarter to a half above the control, in often repeated tests (any T/C) and in doses without a T/C. Further doses and runs are listed elsewhere. T/C gives the treated animals as a percentage of the vehicle group. Some doses have a count of surviving animals in place of a T/C: the source files T/C as zero there, which appears to mark a toxic dose or a test without result, not a measured value. Some doses without a T/C left all or most animals alive at the check, yet need not have been tolerated: survival well below the control is almost never listed, so the zero probably covers shortened survival too. Counts of survivors are from the toxicity check (mostly the fifth day) where no day follows; animals may have died later. Schedules are NCI's codes, read here as Q, the interval in days (D) or hours (H), X, the number of doses. Some schedules carry Z or #; the key to these is not given. Some doses were run more than once; the results are listed from low to high. Where survival is the endpoint, the PubChem record calls one and a half times the control and up active, and a quarter to a half above the control has no call in these data; cut-offs in other NCI protocols can differ. Counts like (3×) stand for listed records that agree. Some T/C values are followed by the survivors on the day toxicity was checked, most often the fifth; where none is given, no animal had died by that day.

Test system: L1210 leukemia ip in BDF1 mice, survival T/C
Assay: NCI In Vivo Anticancer Drug Screen. Data for tumor model L1210 Leukemia (intraperitoneal) in B6D2F1 (BDF1) mice
Conditions: T/C endpoint: mean survival time, higher T/C = longer survival
[1] = dose: 200.0 mg/kg/injection, schedule: Q01DX001 (ip), vehicle: saline
[2] = dose: 200.0 mg/kg/injection, schedule: Q04DX002 (ip), vehicle: saline
[3] = dose: 400.0 mg/kg/injection, schedule: Q01DX001 (ip), vehicle: Klucel (hydroxypropylcellulose) (HPC)
[4] = dose: 400.0 mg/kg/injection, schedule: Q01DX001 (ip), vehicle: saline
[5] = dose: 120.0 mg/kg/injection, schedule: Q01DX Z (ip), vehicle: saline
[6] = dose: 100.0 mg/kg/injection, schedule: Q01DX001 (ip), vehicle: saline
[7] = dose: 100.0 mg/kg/injection, schedule: Q04DX002 (ip), vehicle: saline
[8] = dose: 200.0 mg/kg/injection, schedule: Q04DX002 (ip), vehicle: Klucel (hydroxypropylcellulose) (HPC)
[9] = dose: 400.0 mg/kg/injection, schedule: Q04DX002 (ip), vehicle: Klucel (hydroxypropylcellulose) (HPC)
[10] = dose: 400.0 mg/kg/injection, schedule: Q01DX009 (ip), vehicle: Klucel (hydroxypropylcellulose) (HPC)
[11] = dose: 200.0 mg/kg/injection, schedule: Q01DX009 (ip), vehicle: saline with Tween-80
[12] = dose: 175.0 mg/kg/injection, schedule: Q01DX Z (ip), vehicle: methylcellulose (MC)
[13] = dose: 300.0 mg/kg/injection, schedule: Q01DX001 (ip), vehicle: saline
[14] = dose: 75.0 mg/kg/injection, schedule: Q01DX001 (ip), vehicle: saline

For Oc1ccc(O)c(Cl)c1, the survivor count [1] was 0 of 4, the survivor count [2] was 1 of 3 and the survivor count [3] was 0 of 3. The survivor count [4] was 0 of 4.

With N/N=C(\N)c1cn(C2OC(CO)C(O)C2O)c2ncnc(N)c12 (centres undefined) the survivor count (dose: 10.0 mg/kg/injection, schedule: Q01DX001 (ip), vehicle: carboxymethylcellulose (CMC)) was 0 of 4, the survivor count (dose: 20.0 mg/kg/injection, schedule: Q01DX001 (ip), vehicle: carboxymethylcellulose (CMC)) was 0 of 4 and the survivor count (dose: 40.0 mg/kg/injection, schedule: Q01DX001 (ip), vehicle: carboxymethylcellulose (CMC)) was 0 of 4. The survivor count (dose: 80.0 mg/kg/injection, schedule: Q01DX001 (ip), vehicle: carboxymethylcellulose (CMC)) was 0 of 4, the survivor count (dose: 100.0 mg/kg/injection, schedule: Q01DX001 (ip), vehicle: carboxymethylcellulose (CMC)) was 0 of 4 and the survivor count (dose: 200.0 mg/kg/injection, schedule: Q01DX001 (ip), vehicle: carboxymethylcellulose (CMC)) was 0 of 4. For the same molecule, the survivor count (dose: 400.0 mg/kg/injection, schedule: Q01DX001 (ip), vehicle: carboxymethylcellulose (CMC)) was 0 of 4.

For CN=C(c1ccc(NC(=O)c2ccc(C(=O)Nc3ccc(C(=NC)N(C)C)cc3)c(Cl)c2)cc1)N(C)C, the survivor count (dose: 3.75 mg/kg/injection, schedule: Q01DX Z (ip), vehicle: saline) was 4 of 6, the survivor count (dose: 7.5 mg/kg/injection, schedule: Q01DX Z (ip), vehicle: saline) was 0 of 6 and the survivor count (dose: 15.0 mg/kg/injection, schedule: Q01DX Z (ip), vehicle: saline) was 0 of 6. For the same molecule, the survivor count (dose: 30.0 mg/kg/injection, schedule: Q01DX Z (ip), vehicle: saline) was 0 of 6, the survivor count (dose: 60.0 mg/kg/injection, schedule: Q01DX Z (ip), vehicle: saline) was 0 of 6 and the survivor count [5] was 0 of 6.

With O=C/C=C/C=O the survivor count [6] was 0 of 3, the survivor count [1] was 0 of 3 and the survivor count [4] was 0 of 3.

For Cc1cncn1Cc1ccc([N+](=O)[O-])cc1, the survivor count (dose: 100.0 mg/kg/injection, schedule: Q01DX009 (ip), vehicle: saline) was 1 of 3, the T/C [7] was 97 [5 of 6 alive], 103, 103 % of control [4 of 6 alive] and the survivor count [7] was 1 of 3. The survivor count [2] was 0 of 3 and 0 of 6 and the survivor count (dose: 400.0 mg/kg/injection, schedule: Q04DX002 (ip), vehicle: saline) was 0 of 3 and 0 of 6.

Cc1cc(C(=O)/C=C(\C(=O)c2ccccc2)c2ccccc2)ccc1Cl was tested, and the survivor count [8] was 1 of 3 and the survivor count [9] was 0 of 3.

Nc1ccccc1C(=O)N/N=C/c1ccc(Cl)cc1Cl was tested, and the survivor count [10] was 4 of 6.

In the case of O=c1cc(O)nc[nH]1, the survivor count (dose: 750.0 mg/kg/injection, schedule: Q01DX Z (oral), vehicle: methylcellulose (MC)) is reported as 6 of 6.

In the case of Nc1ccc(OC(=O)Nc2ccc(O)cc2)cc1, the survivor count [5] is reported as 6 of 6.

In the case of CS(=O)NOCCCCONS(C)=O (centres undefined), the survivor count (dose: 400.0 mg/kg/injection, schedule: Q04DX002 (ip), vehicle: saline with Tween-80) is reported as 1 of 3.

With Cc1nonc1C(=O)NN the survivor count [8] was 0 of 3 and the survivor count [9] was 0 of 3.

CCC(C)C(C#N)(CCN1CCCCC1)Cc1cccc2ccccc12 (centres undefined) was tested, and the survivor count [11] was 6 of 6 and the survivor count (dose: 400.0 mg/kg/injection, schedule: Q01DX009 (ip), vehicle: saline with Tween-80) was 0 of 6.

For COC1C(OC(N)=O)C(O)C(Oc2ccc3c(O)c(NC(=O)c4ccc(O)c(CC=C(C)C)c4)c(=O)oc3c2C)OC1(C)C (centres undefined), the survivor count (dose: 400.0 mg/kg/injection, schedule: Q01DX Z (ip), vehicle: saline) was 0 of 6.

C[C@H](CCC(=O)O)[C@H]1CC[C@H]2[C@@H]3[C@H](O)C[C@@H]4C[C@H](O)CC[C@]4(C)[C@H]3C[C@H](O)[C@]12C (tested in a mixture with another compound) was tested, and the T/C (dose: 80.0 mg/kg/injection, schedule: Q01DX Z (ip), vehicle: methylcellulose (MC)) was 126 % of control, the T/C (dose: 120.0 mg/kg/injection, schedule: Q01DX009 (ip), vehicle: saline) was 125 % of control and the T/C (dose: 120.0 mg/kg/injection, schedule: Q01DX Z (ip), vehicle: methylcellulose (MC)) was 126 % of control. The T/C [12] was 129 and 132 % of control, the survivor count [12] was 2 of 6 and the T/C (dose: 180.0 mg/kg/injection, schedule: Q01DX009 (ip), vehicle: saline) was 137 % of control [4 of 6 alive]. The survivor count (dose: 263.0 mg/kg/injection, schedule: Q01DX Z (ip), vehicle: methylcellulose (MC)) was 1 of 6, the survivor count (dose: 270.0 mg/kg/injection, schedule: Q01DX009 (ip), vehicle: other) was 1 of 6 and the survivor count (dose: 270.0 mg/kg/injection, schedule: Q01DX009 (ip), vehicle: saline) was 1 of 6. For the same molecule, the survivor count (dose: 270.0 mg/kg/injection, schedule: Q01DX Z (ip), vehicle: methylcellulose (MC)) was 6 of 6, the survivor count (dose: 300.0 mg/kg/injection, schedule: Q01DX009 (ip), vehicle: saline) was 2 of 6 and the T/C (dose: 300.0 mg/kg/injection, schedule: Q04DX003 (ip), vehicle: other) was 145 % of control. For the same molecule, the survivor count (dose: 400.0 mg/kg/injection, schedule: Q01DX001 (ip), vehicle: alcohol) was 3 of 6.

For ClC(Cl)(Cl)c1ccn(-c2ccccc2)n1, the survivor count (dose: 200.0 mg/kg/injection, schedule: Q01DX001 (ip), vehicle: Klucel (hydroxypropylcellulose) (HPC)) was 3 of 6 and the survivor count [3] was 3 of 6.

In the case of CCN(CC)CCCC(C)Nc1cc(N)nc2nc(-c3ccc(Cl)cc3)cnc12 (centres undefined), the survivor count [13] is reported as 1 of 6.

For O=[N+]([O-])c1ccc(OCCN2CCCC2)cc1, the survivor count [13] was 0 of 6.

For CCSc1nc(N)c(C#N)cc1C#N, the survivor count [10] was 1 of 6 and the survivor count (dose: 400.0 mg/kg/injection, schedule: Q04DX003 (ip), vehicle: Klucel (hydroxypropylcellulose) (HPC)) was 4 of 6.

O=[N+]([O-])c1ccc2c(c1)C(Br)c1ccccc1-2 (centres undefined) was tested, and the survivor count [10] was 4 of 6.

Cc1cc(Cl)c(Cl)cc1NC(=O)c1ccc(Cl)c(Cl)c1 was tested, and the survivor count [11] was 6 of 6.

With Cc1ccc(C(C)C)c(OCCN2CC=CC2)c1 the survivor count [4] was 0 of 6.

O=P(N1CCOCC1)(N1CC1)N1CC1 was tested, and the T/C (dose: 8.0 mg/kg/injection, schedule: Q01DX015 (ip), vehicle: saline) was 139 % of control, the T/C (dose: 22.0 mg/kg/injection, schedule: Q01DX001 (ip), vehicle: saline, evaluated on day 30) was 129 and 132 % of control and the T/C (dose: 22.0 mg/kg/injection, schedule: Q01DX001 (ip), vehicle: saline, run until all animals had died) was 123 (2×), 126, 134 % of control. For the same molecule, the T/C (dose: 33.0 mg/kg/injection, schedule: Q01DX001 (ip), vehicle: saline) was 143 and 149 % of control, the T/C (dose: 50.0 mg/kg/injection, schedule: Q01DX001 (ip), vehicle: saline, evaluated on day 30) was 142 % of control and the T/C (dose: 50.0 mg/kg/injection, schedule: Q01DX001 (ip), vehicle: saline, run until all animals had died) was 140, 151, 157, 162, 235 % of control. The survivor count (dose: 50.0 mg/kg/injection, schedule: Q01DX009 (ip), vehicle: saline) was 7 of 7, the T/C [14] was 121, 149, 162, 221 % of control and the survivor count [14] was 3 of 6. The survivor count [6] was 0 of 4, 2 of 4, 4 of 4, the survivor count (dose: 100.0 mg/kg/injection, schedule: Q04DX003 (ip), vehicle: saline) was 4 of 7 and the survivor count [1] was 3 of 4. For the same molecule, the survivor count (dose: 200.0 mg/kg/injection, schedule: Q04DX003 (ip), vehicle: saline) was 5 of 7, the survivor count [4] was 2 of 4 and the survivor count (dose: 400.0 mg/kg/injection, schedule: Q04DX003 (ip), vehicle: saline) was 3 of 7.

CC(C)CC1NC(=O)C(C(C)C)NC(=O)CC(C)COC(=O)C(CC(C)C)N(C)C(=O)C(C(C)C)NC(=O)C(C(C)C)OC1=O (centres undefined) was tested, and the survivor count (dose: 300.0 mg/kg/injection, schedule: Q01DX001 (ip), vehicle: carboxymethylcellulose (CMC)) was 1 of 6.
